Measured values published in publication PMC3271061.
Results are given in words; binding and its absence hold for the method and conditions named. Some results given as binding are weak or reduced against the parent protein; the word gives no strength.

B1: AtASY3 (protein, UniProt Q0WR66 1-793)
chain: MSDYRSFGSNYHPSSQSRKISIGVMADSQPKRNLVPDKDDGDVIARVEKLKSATVTELQANKKEKSDLAAKQRNSAQVTGHVTSPWRSPRSSHRKLGTLESVLCKQTSSLSGSKGLNKGLNGAHQTPARESFQNCPISSPQHSLGELNGGRNDRVMDRSPERMEEPPSAVLQQKVASQREKMDKPGKETNGTTDVLRSKLWEILGKASPANNEDVNSETPEVEKTNFKLSQDKGSNDDPLIKPRHNSDSIETDSESPENATRRPVTRSLLQRRVGAKGVQKKTKAGANLGRKCTEQVNSVFSFEEGLRGKIGTAVNSSVMPKKQRGRRKNTVVKCRKAHSRKKDEADWSRKEASKSNTPPRSESTETGKRSSSSDKKGSSHDLHPQSKARKQKPDISTREGDFHPSPEAEAAALPEMSQGLSKNGDKHERPSNIFREKSVEPENEFQSPTFGYKAPISSPSPCCSPEASPLQPRNISPTLDETETPIFSFGTKKTSQGTTGQASDTEKRLPDFLEKKRDYSFRRESSPEPNEDLVLSDPSSDERDSDGSREDSPVLGHNISPEERETANWTNERSMLGPSSVKRNSNLKGIGRVVLSPPSPLSKGIDKTDSFQHCSEMDEDEDEGLGRAVALFAMALQNFERKLKSAAEKKSSEIIASVSEEIHLELENIKSHIITEAGKTSNLAKTKRKHAETRLQEQEEKMRMIHEKFKDDVSHHLEDFKSTIEELEANQSELKGSIKKQRTSHQKLIAHFEGGIETKLDDATKRIDSVNKSARGKMLQLKMIVAECLRDD
B2: AtASY1 (protein, UniProt F4HRV8 1-596)
chain: MVMAQKLKEAEITEQDSLLLTRNLLRIAIFNISYIRGLFPEKYFNDKSVPALDMKIKKLMPMDAESRRLIDWMEKGVYDALQRKYLKTLMFSICETVDGPMIEEYSFSFSYSDSDSQDVMMNINRTGNKKNGGIFNSTADITPNQMRSSACKMVRTLVQLMRTLDKMPDERTIVMKLLYYDDVTPPDYEPPFFRGCTEDEAQYVWTKNPLRMEIGNVNSKHLVLTLKVKSVLDPCEDENDDMQDDGKSIGPDSVHDDQPSDSDSEISQTQENQFIVAPVEKQDDDDGEVDEDDNTQDPAENEQQLARVKDWINSRHLDTLELTDILANFPDISIVLSEEIMDQLVTEGVLSKTGKDMYIKKRDKTPESEFTFVKEEADGQISPGKSVAPEDYLYMKALYHSLPMKYVTITKLHNMLDGEANQTAVRKLMDRMTQEGYVEASSNRRLGKRVIHSSLTEKKLNEVRKVLATDDMDVDVTETINKTNGPDAKVTADVSTCGGIHSIGSDFTRTKGRSGGMQQNGSVLSEQTISKAGNTPISNKAQPAASRESFAVHGGAVKEAETVNCSQASQDRRGRKTSMVREPILQYSKRQKSQAN

Experiments:
[1] = target: T1, AtASY1 (Arabidopsis thaliana) (UniProt F4HRV8); test: two-hybrid; GAL4 DBD (pGBKT7) and GAL4 AD (pGADT7) fusions co-transformed into Y2HGold yeast; growth on SD -Leu/-Trp/-His and SD -Leu/-Trp/-His/-Ade; drop test with serial dilutions, 30°C, 2 days
T1 sequence: B2 chain

[2] = target: T2, AtASY3 (Arabidopsis thaliana) (UniProt Q0WR66); test: as above
T2 sequence: B1 chain

Binder | binding [1] | binding [2]
B1 | binds | –
B2 | – | binds
